# Data reported in patent US5410031A, “Nucleoside cotransporter protein cDNA” (The Regents of the University of California Office of …, priority 1992, dated 1995).
# At least one structure is not confirmed: it was looked up by name or label, or the drawing left a doubt.
# Test system: SNST1c (chimeric Na+/nucleoside cotransporter SNST1)
# Assay: Uptake of radiolabelled substrates in Xenopus oocytes expressing SNST1c
# Format: cell-based, rabbit
# Details: Xenopus oocytes injected with SNST1c RNA
# Procedure: Oocyte injections. Xenopus oocytes were dissected and injected, and transport was measured as described below. Stage V and VI oocytes (Dumont, J. Morphol. 136:153-180 (1972)) from Xenopus laevis (Xenopus One, Ann Arbor, Mich.) were dissected and defolliculated as described by Hediger et al., Proc. Natl. Acad. Sci. USA 84:2634-2637 (1987) and Coady et al., Arch. Biochem. Biophys. 265:73-81 (1990), both of which are incorporated by reference herein. Briefly, oocytes were hand-dissected from ovarian tissue of adult female Xenopus laevis. […]
# Na^+ /nucleoside transporter activity was assayed by measuring the Na^+ -dependent uptake by the chimeric construct, SNST1c. […] Therefore, the uptake of ^22 Na^+ in the presence of potential substrates was monitored.
# Measurements were made of [^3 H] uridine uptake in oocytes expressing SNST1c (FIG. 4A and 4B). Uptakes were measured over 5 min in a buffer containing either 100 mM NaCl, choline chloride or LiCl as described by Coady et al., Arch. […] Transport of substrate was assayed by placing 4-6 oocytes in 0.5 ml of radioactive uptake solution, preceded by a 30 min preincubation in a Na^+ -free (100 mM choline-Cl) solution when Na^+ -dependent transport was to be measured. […] The oocytes were individually dissolved in 1.0 ml of 10% SDS and assayed for radioactivity. All data are expressed as mean ±SD. […]
compound,measurement,value
N[C@@H](CCC(=O)O)C(=O)O [glutamate],transport of radiolabelled substrate by SNST1c,none of these was transported
